Measured data: PubChem BioAssay AID652259 (Drosophila RNAi Screening Center, 2013)
The screen tested about 22,000 reagents; shown is a random part of those that have a named target and a result. In the full data, 233 (1.1%) were called active. 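Light values are raw, unnormalised plate reads; the ratio scores behind the reporter calls were not deposited.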 A number with no mark means an inactive call. Reagent sequences are not shown. The record does not give: the amount of reagent, the time to read-out, the dose of the treatment.

Aim: 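Knock-downs that push a Wingless-driven reporter up or down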 (primary screen)
Cells: Drosophila clone 8 imaginal disc epithelial cells
Knock-down reagent: long dsRNA against Drosophila genes
Treatment: pathway stimulated by co-transfected Wingless expression plasmid
Detection: 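Firefly luciferase from a tcf-site Wingless reporter, measured alongside co-transfected Renilla luciferase that tracks transfection; pathway stimulated by a Wingless plasmid; the firefly-to-Renilla ratio is not deposited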
Direction: firefly reporter light: higher = more Wg reporter light, before normalisation; Renilla control light: higher = more transfected or surviving cells
Call rule: 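a knock-down is a candidate when at least two out of four statistical tests show it departing from its plate mean; one test alone signals a weak candidate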
Meaning of the calls: active = candidate regulator (raises or lowers reporter); inactive = not a candidate

The opening 2 records, to show the layout:
{"Target gene": "Mks1", "PubChem SID": "SID104199489", "firefly reporter light, replicate 1": 16724, "Renilla control light, replicate 1": 10188}
{"Target gene": "Ccdc58", "PubChem SID": "SID104190010", "firefly reporter light, replicate 1": 6629, "Renilla control light, replicate 1": 2694}

Main list, from the first entry:
{"Target gene": "Mks1", "PubChem SID": "SID104199489", "firefly reporter light, replicate 1": 16724, "Renilla control light, replicate 1": 10188}
{"Target gene": "Ccdc58", "PubChem SID": "SID104190010", "firefly reporter light, replicate 1": 6629, "Renilla control light, replicate 1": 2694}
{"Target gene": "mei-P22", "PubChem SID": "SID104191158", "firefly reporter light, replicate 1": 1481, "firefly reporter light, replicate 2": 7296, "Renilla control light, replicate 1": 882, "Renilla control light, replicate 2": 2964}
{"Target gene": "CG16984", "PubChem SID": "SID104188292", "firefly reporter light, replicate 1": 4996, "Renilla control light, replicate 1": 2665}
{"Target gene": "CG17715", "PubChem SID": "SID104191742", "firefly reporter light, replicate 1": 18795, "Renilla control light, replicate 1": 5817}
{"Target gene": "nab", "PubChem SID": "SID104188247", "firefly reporter light, replicate 1": 6787, "Renilla control light, replicate 1": 3611}
{"Target gene": "nab", "PubChem SID": "SID104188248", "reporter change call, replicate 1": "Wg reporter activity raised", "firefly reporter light, replicate 1": 5680, "Renilla control light, replicate 1": 2594}
{"Target gene": "CG30053", "PubChem SID": "SID104187052", "firefly reporter light, replicate 1": 4993, "Renilla control light, replicate 1": 1104}
{"Target gene": "CG9444", "PubChem SID": "SID104196285", "firefly reporter light, replicate 1": 12796, "Renilla control light, replicate 1": 3745}
{"Target gene": "CG7065", "PubChem SID": "SID104198212", "firefly reporter light, replicate 1": 3527, "firefly reporter light, replicate 2": 7268, "Renilla control light, replicate 1": 1143, "Renilla control light, replicate 2": 1785}
{"Target gene": "P32", "PubChem SID": "SID104186780", "firefly reporter light, replicate 1": 14523, "Renilla control light, replicate 1": 3792}
{"Target gene": "CG6695", "PubChem SID": "SID104195890", "firefly reporter light, replicate 1": 1684, "firefly reporter light, replicate 2": 4792, "Renilla control light, replicate 1": 1338, "Renilla control light, replicate 2": 1847}
{"Target gene": "CG13204", "PubChem SID": "SID104186120", "firefly reporter light, replicate 1": 5222, "Renilla control light, replicate 1": 1993}
{"Target gene": "CG18294", "PubChem SID": "SID104189683", "firefly reporter light, replicate 1": 16674, "Renilla control light, replicate 1": 5180}
{"Target gene": "MED6", "PubChem SID": "SID104196292", "firefly reporter light, replicate 1": 9891, "Renilla control light, replicate 1": 2181}
{"Target gene": "Kdm5", "PubChem SID": "SID104182925", "firefly reporter light, replicate 1": 4517, "Renilla control light, replicate 1": 2317}
{"Target gene": "CG3726", "PubChem SID": "SID104198112", "firefly reporter light, replicate 1": 3802, "firefly reporter light, replicate 2": 10145, "Renilla control light, replicate 1": 1273, "Renilla control light, replicate 2": 3553}
